Earlier results, collected in US10369131B2, “Ultrapure tetrahydrocannabinol-11-oic acids” (Corbus Pharmaceuticals, Inc., priority 2013, dated 2019).

Amino acid sequences for entries named in this document (tags omitted).
UniProt P21554, whole entry: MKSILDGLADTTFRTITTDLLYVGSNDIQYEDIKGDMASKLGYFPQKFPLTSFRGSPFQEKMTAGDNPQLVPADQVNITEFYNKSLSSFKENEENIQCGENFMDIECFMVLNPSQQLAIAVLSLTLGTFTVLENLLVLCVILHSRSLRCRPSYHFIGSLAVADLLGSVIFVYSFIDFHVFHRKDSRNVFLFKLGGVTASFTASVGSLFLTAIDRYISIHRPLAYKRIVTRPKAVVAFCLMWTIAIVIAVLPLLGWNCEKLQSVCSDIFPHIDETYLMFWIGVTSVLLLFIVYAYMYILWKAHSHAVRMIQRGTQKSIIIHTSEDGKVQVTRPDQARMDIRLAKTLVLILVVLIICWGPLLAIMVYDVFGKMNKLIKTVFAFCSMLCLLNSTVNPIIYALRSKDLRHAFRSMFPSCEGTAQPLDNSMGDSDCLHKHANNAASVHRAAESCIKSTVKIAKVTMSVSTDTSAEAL

Molecular target: CB1 receptor (Homo sapiens, UniProt P21554)
Details: earlier ajulemic acid synthesis products, literature; cited from earlier work

## CCCCCCC(C)(C)c1cc(O)c2c(c1)OC(C)(C)[C@@H]1CC=C(C(=O)O)C[C@@H]21
  ratio of CB1/CB2 binding: 0.10

The match of structure and compound is tentative.
